{
  "source": "patent EP1832655A2",
  "about": "“Methods for detecting and reversing resistance to macrocyclic lactone compounds” (priority 1997, dated 1998)",
  "tested_on": "H. contortus moxidectin-resistant (MOF14) strain",
  "test": "Efficacy of verapamil with or without ivermectin in jirds, moxidectin resistant strain",
  "type": "in vivo",
  "settings": "MOX-RESISTANT (MOF14) strain in jirds; oral; VRP 20 mg/kg; IVM 0.046 mg/kg",
  "data": [
    {"smiles": "COc1ccc(CCN(C)CCCC(C#N)(c2ccc(OC)c(OC)c2)C(C)C)cc1OC", "note": "(stereo not shown) [verapamil]", "values": [
      {"measurement": "significance of worm counts", "result": "n.s."}
    ]}
  ]
}
